# Where “and” joins values, the source holds several entries; their conditions need not be identical. Identical values can stand only once. Some of the results follow. The main result of the screen is listed elsewhere. These columns were measured beside it and carry no call. Most of these compounds were active or inconclusive in the main read-out, so they are no random draw. Words in brackets tell the shape of the fitted curve; partial curves, single points and poor fits give uncertain potencies.
# Assay: Cell signaling CRE-BLA (Fsk stim)
# Settings: CHO CRE-bla reporter (cAMP response element driving beta-lactamase), forskolin EC10, beta-lactamase ratio; measured here: 460 nm blue channel
# In short: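 CRE-bla CHO reporter cells treated with compound titration plus EC10 NKH 477 (water-soluble forskolin), incubated 3 h at 37 °C; CCF4 loading 2 h at room temperature, 460/530 nm emission ratio read, AC50 values derived for positive or negative modulators.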
row,Structure (SMILES),AC50
1,CCOC(=O)c1c(C)c(C(=O)NCc2cccs2)c(C)n1CC,"7.94 µM [rising, partial curve]"
2,CCOC(=O)c1c(N)nn(C(=O)C(C)(C)C)c1-c1ccccc1,"12.6 µM [rising, single point]"
3,CCCn1nc(C(=O)NCc2ccccn2)c2ccccc2c1=O,"25.1 µM [rising, single point]"
4,CN(CC(=O)NCCN1CCN(Cc2ccccc2)CC1)S(=O)(=O)c1cccc2nsnc12,"3.98 µM [rising, single point]"
5,Cc1ccc2[nH]c(-c3ccccc3)c(CN3CCN(C)CC3)c(=O)c2c1,"0.398 µM [rising, full curve]"
6,NS(=O)(=O)c1ccc(Nc2nc(-c3ccc(O)cc3)cs2)cc1,"0.00316 µM [falling, full curve, poor fit]"
7,COC(=O)[C@@H](NC(=O)NCc1ccccc1Cl)C(C)C,"6.31 µM [falling, partial curve]"
8,COc1c(C)cccc1C(=O)Nc1cc(-c2nn3c(C)nnc3s2)ccc1C,"2.51 µM [rising, full curve]"
9,N#CCCn1c(SCC(=O)c2c[nH]c3ccccc23)nc2ccccc21,"3.16 µM [rising, single point]"
10,Cc1ccc(-c2cc(C(F)F)nc(NCC3CCCO3)n2)cc1 (centres undefined),"10 µM [rising, partial curve]"
11,CCCCNc1nc2ccccc2n1CC(=O)N1CCc2ccccc2C1,"0.1 µM [falling, partial curve]"
12,CCCCn1c(SCC(=O)Nc2nnc(C)s2)nnc1-c1ccoc1C,"12.6 µM [rising, single point]"
13,COc1cc(-c2nnc(COc3ccc4ccccc4c3)o2)cc(OC)c1OC,"0.316 µM [rising, partial curve]"
14,COCCn1c(=O)c(-c2ccc(OC)cc2)nc2cnc(OCc3ccccc3)nc21,"12.6 µM [rising, partial curve]"
15,O=C1c2cccc(O)c2C(=O)c2c(O)cccc21,"10 µM [rising, full curve, poor fit]"
16,CC1CCN(c2nc3ccccc3nc2C(C#N)C(=O)NC2CCCCC2)CC1 (centres undefined),"10 µM [rising, partial curve]"
17,COc1ccc(OC)c(NC(=O)Cc2coc3ccc(C)cc23)c1,"0.00316 µM [falling, full curve, poor fit]"
18,O=C(Cc1ccc(Cl)cc1)Nc1ccc(-c2nnc(-c3ccco3)o2)cc1,"6.31 µM [falling, partial curve]"
19,CC1Cc2cc(C3(O)C(=O)c4ccccc4C3=O)ccc2N1 (centres undefined),"20 µM [falling, single point]"
20,CCc1nc2c(cnn2-c2ccc(Cl)cc2)c(=O)n1-c1ccc(OC)cc1,"0.631 µM [rising, full curve]"
21,Cc1cccc(-c2c3c(=O)n(C)c(=O)n(C)c3c3cccnn23)c1,"3.16 µM [rising, full curve]"
22,COc1ccc(C(=O)Nc2ccc(-c3cn4ccsc4n3)cc2)cc1S(=O)(=O)N1CCOCC1,"2 µM [rising, full curve]"
23,CCOC(=O)CSc1nnc(CNC(=O)c2ccco2)n1C,"25.1 µM [falling, single point]"

row,Structure (SMILES),AC50
1,CCN(CC)C(=O)CN(C)S(=O)(=O)c1cccc2nsnc12,"0.126 µM [falling, full curve]"
2,CCn1c(SCC(=O)Nc2nc(-c3ccc(C)cc3)cs2)nnc1-c1ccccc1O,"25.1 µM [falling, single point]"
3,CCCN(CCC)c1ncnc2c1cnn2-c1ccc(OC)cc1,"10 µM [rising, partial curve]"
4,CCC(C)NC(=O)C1CCC(=O)N1Cc1ccc(C)cc1 (centres undefined),"25.1 µM [rising, single point]"
5,CCCN1Cc2cccc(C(=O)Nc3ccc4c(c3)OCCO4)c2C1=O,"12.6 µM [rising, partial curve]"
6,O=c1cc(N2CCOCC2)oc2c(-c3ccccc3)cccc12,"2.51 µM [rising, partial curve]"
7,CC(C)OCCCNC(=O)c1c(N)n(/N=C/c2ccccn2)c2nc3ccccc3nc12,"3.98 µM [rising, partial curve]"
8,CCOC(=O)c1cnc(SCC(=O)c2ccccc2)nc1N,"12.6 µM [rising, single point]"
9,Cc1ccc2cc3c(N)c(C(=O)N4CCOCC4)sc3nc2c1,"10 µM [rising, partial curve]"
10,CCCCn1c(NC(=O)CC)c(C#N)c2nc3ccccc3nc21,"10 µM [rising, partial curve]"
11,O=Nc1ccc(Nc2ccccc2)cc1,"3.16 µM [falling, full curve]"
12,CCCCNC(=O)c1cc2c(=O)n3cccc(C)c3nc2n1C,"5.01 µM [rising, partial curve]"
13,CCc1cc2c(=O)n(Cc3ccco3)c(SCC(=O)N3CCCc4ccccc43)nc2s1,"3.98 µM [rising, full curve]"
14,CCCCN=C(C)c1c(O)c2ccccc2oc1=O,"10 µM [rising, single point]"
15,Cn1nc(C(=O)NCc2ccccc2)c2ccccc2c1=O,"10 µM [rising, partial curve]"
16,O=C(O)CCn1c(C(=O)O)cc2sccc21,"3.98 µM [falling, single point]"
17,Cc1ccc(NC(=O)CSC2=C(C#N)C(c3ccco3)C3=C(CC(C)(C)CC3=O)N2)cc1 (centres undefined),"12.6 µM [rising, single point]"
18,CCOc1ccc(-c2nnn(CC(=O)N3CCN(c4ccc(OC)cc4)CC3)n2)cc1OCC,"15.8 µM [rising, partial curve]"
19,Cc1cccc(OCC(=O)Nc2ccc(N3CCCC3)cc2)c1C,"3.16 µM [falling, partial curve]"
20,Cc1cccc(NC(=O)Nc2cccc(C#N)c2)n1,"3.16 µM [falling, full curve]"
21,COc1cccc(Nc2ncc3ncc(=O)n(Cc4cccs4)c3n2)c1,"3.16 µM [falling, single point]"
22,O=C(Nc1ccc2c3c(cccc13)CC2)c1ccco1,"25.1 µM [falling, single point]"
23,CCN(CC)S(=O)(=O)c1ccc(NC(=O)COc2c(OC)cccc2OC)cc1,"10 µM [rising, partial curve]"

row,Structure (SMILES),AC50
1,Cc1ccc(-c2nnc3c4ccccc4c(C)nn23)cc1S(=O)(=O)N1CCN(C)CC1,"3.16 µM [rising, partial curve]"
2,CCNCCNC(=O)c1c(O)c2cccc3c2n(c1=O)CCC3,"15.8 µM [rising, single point]"
3,COc1cc(OC)c(C(=O)Oc2ccc3c(c2)OCO3)cc1OC,"25.1 µM [rising, single point]"
4,CCOC(=O)/C=C/S(=O)(=O)c1ccc(NC(C)=O)cc1,"6.31 µM [falling, partial curve]"
5,COC(=O)c1cc(Cc2ccc(N)c(C(=O)OC)c2)ccc1N,"20 µM [rising, partial curve]"
6,CCOc1ccc(C(=O)NCCn2cc(SCC(=O)Nc3cc(C)on3)c3ccccc32)cc1,"0.251 µM [falling, full curve, poor fit]"
7,COCCN1Cc2cccc(C(=O)NCc3ccccc3OC)c2C1=O,"15.8 µM [rising, single point]"
8,O=c1cc(-c2ccc(O)c(O)c2)oc2cccc(O)c12,"25.1 µM [falling, single point]"
9,Cc1ccccc1-c1ccc2ncnc(N3CCNCC3)c2c1,"3.16 µM [rising, full curve]"
10,O=C(O)c1cc(=O)c2ccccc2[nH]1,"12.6 µM [falling, single point] and 15.8 µM [falling, partial curve, poor fit]"
11,COc1ccccc1-c1cc(NCc2cccs2)ncn1,"15.8 µM [rising, partial curve]"
12,Cc1nc(SCC(=O)Nc2cc(C)on2)c2c(C)c(C)sc2n1,"0.251 µM [rising, full curve]"
13,COc1ccc(NC(=O)CSc2nc3ccccc3c(=O)n2CCNC(C)=O)cc1,"25.1 µM [rising, single point]"
14,CCOc1ccc(/C(O)=C2/C(=O)C(=O)N(CCOCCO)C2c2ccc(F)cc2)cc1 (centres undefined),"5.01 µM [rising, partial curve]"
15,O=C(CCOc1ccccc1)Nc1ccc(S(=O)(=O)N2CCCC2)cc1,"25.1 µM [rising, single point]"
16,CC1CCCC(C)N1C(=O)CN1C(=O)C(C)(C)Oc2ccc(C(=O)NC3CCCCC3)cc21 (centres undefined),"3.98 µM [falling, partial curve]"
17,CSc1cnn(-c2ccccc2)c(=O)c1SC,"10 µM [rising, partial curve]"
18,Cc1cc(C)n(C(=O)c2cc3ccccc3c(=O)o2)n1,"0.00316 µM [falling, full curve, poor fit]"
19,COc1ccc(-n2nnnc2SCC(=O)N2CCCC2)cc1OC,"10 µM [rising, partial curve]"
20,Cc1cc(C)c2c(n1)nn1c(N3CCN(Cc4ccccc4)CC3)cc(C)nc21,"0.00794 µM [rising, full curve, poor fit]"
21,COC(=O)CN(c1ccccc1F)S(=O)(=O)c1ccccc1,"0.00398 µM [falling, full curve]"
22,Cc1cc(C)cc(NC(=O)CN(C)S(=O)(=O)c2cnc[nH]2)c1,"12.6 µM [rising, partial curve, poor fit]"
23,Cc1ccccc1N1C(=O)C(Cl)=C(N2CCN(c3ccccc3)CC2)C1=O,"12.6 µM [falling, single point]"

# From PubChem BioAssay AID662 (National Center for Advancing Translational Sciences (NCATS), 2007)
